Results are given in words; binding and its absence hold for the method and conditions named. Binding seen in cells or lysates may run through a third protein. A yes stands for co-enrichment or nearness to the bait. Other partners may have been found. Sequences can lack the tags named with a protein.
T1: Ume6 tagged at the carboxy-terminus with TurboID (TurboID-3xMyc) (Saccharomyces cerevisiae) (UniProt P39001)
T1 sequence: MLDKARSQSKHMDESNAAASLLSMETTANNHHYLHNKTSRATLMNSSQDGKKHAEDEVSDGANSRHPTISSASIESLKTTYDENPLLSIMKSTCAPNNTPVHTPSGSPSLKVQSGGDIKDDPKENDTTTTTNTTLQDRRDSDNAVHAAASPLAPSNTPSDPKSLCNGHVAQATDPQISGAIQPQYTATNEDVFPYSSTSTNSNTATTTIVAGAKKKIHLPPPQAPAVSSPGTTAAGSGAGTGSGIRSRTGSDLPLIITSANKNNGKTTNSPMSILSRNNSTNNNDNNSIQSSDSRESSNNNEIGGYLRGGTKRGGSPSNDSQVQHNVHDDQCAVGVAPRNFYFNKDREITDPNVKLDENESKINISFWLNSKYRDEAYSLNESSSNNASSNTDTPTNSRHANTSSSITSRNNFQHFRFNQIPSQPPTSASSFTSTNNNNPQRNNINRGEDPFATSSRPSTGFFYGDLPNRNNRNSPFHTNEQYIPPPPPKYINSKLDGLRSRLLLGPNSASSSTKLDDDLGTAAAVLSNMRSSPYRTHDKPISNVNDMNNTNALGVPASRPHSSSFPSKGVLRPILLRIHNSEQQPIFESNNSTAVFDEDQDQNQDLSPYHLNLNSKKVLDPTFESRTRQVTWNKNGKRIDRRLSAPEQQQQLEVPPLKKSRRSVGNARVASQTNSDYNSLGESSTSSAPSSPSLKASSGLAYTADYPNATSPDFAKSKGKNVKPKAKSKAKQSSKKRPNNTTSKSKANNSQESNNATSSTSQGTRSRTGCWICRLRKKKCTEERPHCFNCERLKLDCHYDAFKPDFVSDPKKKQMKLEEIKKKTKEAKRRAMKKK


biological target: T1, Ume6 tagged at the carboxy-terminus with TurboID (TurboID-3xMyc) (Saccharomyces cerevisiae); assay: proximity labelling; Ume6 with C-terminal TurboID-3xMyc in living diploid SK1 cells with 50 μM biotin; rich medium (YPD, exponential) or 4 h in SPO; WT, ime1Δ and rim11Δ cells; denatured extracts, streptavidin M280 beads, on-bead trypsin digestion, label-free LC-MS/MS; enrichment against an untagged control

Row | Binder | binding
1 | Stb3 (protein, UniProt Q12427 1-513) MSENQKEVSPPQAISVKSEASSSIFSKPISTSSPAGLAAAQRVTPGKLSTLLLEMGPLAIRHITQTLCLDIPCFKDLSSSKQRRLIMSAMESGDKEKSVVFEKIGWGQWSAKRVDPANFDKELEATNFANAKVKDLISQESQRRKSNNSNSNSGGKVEMPMKVEHNITNIDGATTPPTAVASTTIPVNIKRSKSPLAAANVVYIDENALASEDEDEEFDEDDHHLHYQNKSRNSSNNFGKSSNGDPYSFGRRRSQVVFADSTPENIEHEIIAQKIRPLLRNRRRSSIKPHTPFISKLNTHQDSSYLSPNTTSTTTPSNNNSNSNQAKIDLEKLTATSEPTSRRASRLSVSKESSIRSTLFPNKNYLIVTTNPNSKATSVSTSPKLEEQMNVSSNPIVLSDKEKHRVASQHLNGESSPQLVPHSHHQPHSDTDEEDWESIGAASLRNNSLAPNIDSVASSTNGVVSPKPTNPSFTNSQNGDIEPPLQHDQQKHEQQPRNGEDNSAAFLLMSLKS | binds
2 | Ada1 (protein, UniProt Q12060 1-488) MSAIQSPAPKPLQPTYPAASPASTNAYMKPGLIGSPAVSNHTEPNNGNNETAEPQGPNQRIDLGAMIEELTSLLGKESWTKYAQIISLFILGKLSRKELSNELELVFSPSAASLEKSNTNHHHSLVRLHNQLLLGIFANSLRENPLGRNGNESSWGFGNGSNNPNNKLKRINKHNSQIEVYKKIVMSLPLNDRNRLKMITKEAGKRGFIFCSVFQARLNNIPKIPIVTNPESLKRVKSNNLKTPLEWSQDIMNGFNVPLASESHSLPDTDSFYLRMVGIAREHGLVGTVDARCVELISLALDQYLKNIIEFTIDTVRYRRKKYSDYYDLNESGLYKSVSEMAADKRDAKIKQLDDDKNEDECADEAKSINNGNNSSKDDIGDISMSSITKAGEAVNEELHENRTISLTNEDIYDSLSIFPNLVEPSGSYYALTNLGLVNDDELVDMKSNIDDLPDFLNEKPTFTPLDERNVGTRHELNWLIKGILTED | binds
3 | Ies1 (protein, UniProt P43579 1-692) MGKRVYDPIHDTFQLREDNSDETKADSPMQSVKSGSQEEASPSSIQSETETVTTKSIPVIHEIEIDDKNDDDSTQSEEENTNILLNFEPSTVPEATGASTATGPVTTNTVRRKPKESNASKYNRHLKKPDGEPFNRKDIQFSFMQELLMDKRQIFTNVLKPLYKNSIVPINIDGDKLSINVTDKEYDARTFVFNDKLTFAQLYVLTIATSIKCSKILRDKLLLDQQVAFSTCVLALLVNIGRLNTTINFYLEMTSQLRTFHSVPVLQLHANDPKLLQDTPRLKSILKNLPWGNEQLSLMETYKKVDQNDGEVDTVNKFNIINMLFSICDNSGLIDKRFLSKYVEVESKAQEQDMVDEQNEVKETEAENEKQESKAAYATTLFDILDYSKYEPKDRSNILIWLLYIHLETNLSQEEVEESVRFFNGLEDGAPAGKFILRCTERSYDTDPEDELEFGANQRIKRREFMSKMEEGRKRERTNVTEVKKPSIGGDKSEEDGEGEDDKSEETVEETRSLLTPTPILESSSPMTLNRKKVTPQLPKVTPAAPTETEEEITSAAIIDKNDLNLTPLKKYNSSATVNKVDKLISLDLNKHVSENGKTQEEFLADLKKSQVPNRLKRRDIGLIKIFNEFEDIPVASVLGIRGKKRKKFKDNLLGFETDFMKNLGASKKVLLNKIERAEIDDEEATAMFKLE | binds
4 | Ies4 (protein, UniProt Q08561 1-116) MSQESSVLSESQEQLANNPKIEDTSPPSANSRDNSKPVLPWDYKNKAIEIKSFSGYKVNFTGWIRRDVREERQRGSEFTASDVKGSDDKATRKKEPADEDPEVKQLEKEGEDGLDS | binds
5 | Spt15 (protein, UniProt P13393 1-240) MADEERLKEFKEANKIVFDPNTRQVWENQNRDGTKPATTFQSEEDIKRAAPESEKDTSATSGIVPTLQNIVATVTLGCRLDLKTVALHARNAEYNPKRFAAVIMRIREPKTTALIFASGKMVVTGAKSEDDSKLASRKYARIIQKIGFAAKFTDFKIQNIVGSCDVKFPIRLEGLAFSHGTFSSYEPELFPGLIYRMVKPKIVLLIFVSGKIVLTGAKQREEIYQAFEAIYPVLSEFRKM | binds
6 | Toa1 (protein, UniProt P32773 1-286) MSNAEASRVYEIIVESVVNEVREDFENAGIDEQTLQDLKNIWQKKLTETKVTTFSWDNQFNEGNINGVQNDLNFNLATPGVNSSEFNIKEENTGNEGLILPNINSNNNIPHSGETNINTNTVEATNNSGATLNTNTSGNTNADVTSQPKIEVKPEIELTINNANITTVENIDDESEKKDDEEKEEDVEKTRKEKEQIEQVKLQAKKEKRSALLDTDEVGSELDDSDDDYLISEGEEDGPDENLMLCLYDKVTRTKARWKCSLKDGVVTINRNDYTFQKAQVEAEWV | binds
7 | Spt5 (protein, UniProt P27692 1-1063) MSDNSDTNVSMQDHDQQFADPVVVPQSTDTKDENTSDKDTVDSGNVTTTESTERAESTSNIPPLDGEEKEAKSEPQQPEDNAETAATEQVSSSNGPATDDAQATLNTDSSEANEIVKKEEGSDERKRPREEDTKNSDGDTKDEGDNKDEDDDEDDDDDDDDEDDDDEAPTKRRRQERNRFLDIEAEVSDDEDEDEDEEDSELVREGFITHGDDEDDEASAPGARRDDRLHRQLDQDLNKTSEEDAQRLAKELRERYGRSSSKQYRAAAQDGYVPQRFLLPSVDTATIWGVRCRPGKEKELIRKLLKKKFNLDRAMGKKKLKILSIFQRDNYTGRIYIEAPKQSVIEKFCNGVPDIYISQKLLIPVQELPLLLKPNKSDDVALEEGSYVRIKRGIYKGDLAMVDQISENNLEVMLKIVPRLDYGKFDEIDPTTQQRKSRRPTFAHRAPPQLFNPTMALRLDQANLYKRDDRHFTYKNEDYIDGYLYKSFRIQHVETKNIQPTVEELARFGSKEGAVDLTSVSQSIKKAQAAKVTFQPGDRIEVLNGEQRGSKGIVTRTTKDIATIKLNGFTTPLEFPISTLRKIFEPGDHVTVINGEHQGDAGLVLMVEQGQVTFMSTQTSREVTITANNLSKSIDTTATSSEYALHDIVELSAKNVACIIQAGHDIFKVIDETGKVSTITKGSILSKINTARARVSSVDANGNEIKIGDTIVEKVGSRREGQVLYIQTQQIFVVSKKIVENAGVFVVNPSNVEAVASKDNMLSNKMDLSKMNPEIISKMGPPSSKTFQQPIQSRGGREVALGKTVRIRSAGYKGQLGIVKDVNGDKATVELHSKNKHITIDKHKLTYYNREGGEGITYDELVNRRGRVPQARMGPSYVSAPRNMATGGIAAGAAATSSGLSGGMTPGWSSFDGGKTPAVNAHGGSGGGGVSSWGGASTWGGQGNGGASAWGGAGGGASAWGGQGTGATSTWGGASAWGNKSSWGGASTWASGGESNGAMSTWGGTGDRSAYGGASTWGGNNNNKSTRDGGASAWGNQDDGNRSAWNNQGNKSNYGGNSTWGGH | binds
